Read-outs that look alike come from different tables or passages of the source. Structures were worked out from names or drawings and are uncertain.
How the values were obtained:
KDM4C (JMJD2C) = KDM4C (JMJD2C) (Homo sapiens, UniProt Q9H3R0); experiment: Histone lysine demethylase AlphaLISA assay, KDM4C
KDM2B (FBXL10) = KDM2B (FBXL10) (Homo sapiens, UniProt Q8NHM5); experiment: Histone lysine demethylase AlphaLISA assay, KDM2B
PHF8 (KDM7) = PHF8 (KDM7) (Homo sapiens, UniProt Q9UPP1); experiment: Histone lysine demethylase AlphaLISA assay, PHF8
KDM5B (PLU-1) = KDM5B (PLU-1) (Homo sapiens, UniProt Q9UGL1); experiment: Histone lysine demethylase AlphaLISA assay, KDM5B
KDM6A (UTX) = KDM6A (UTX) (Homo sapiens, UniProt O15550); experiment: Histone lysine demethylase AlphaLISA assay, KDM6A
[1] = read-out: HDME Inhibition KDM4C (IC50), AlphaLISA assay
[2] = read-out: HDME Inhibition KDM4C, AlphaLISA, in vitro
[3] = read-out: HDME Inhibition KDM2B (IC50), AlphaLISA assay
[4] = read-out: HDME Inhibition KDM2B, AlphaLISA, in vitro
[5] = read-out: HDME Inhibition PHF8 (IC50), AlphaLISA assay
[6] = read-out: HDME Inhibition PHF8, AlphaLISA, in vitro
[7] = read-out: HDME Inhibition KDM5B (IC50), AlphaLISA assay
[8] = read-out: HDME Inhibition KDM5B, AlphaLISA, in vitro

The chains behind the UniProt entries cited, without tags or fusion partners. Residues count along the entry.
UniProt Q9H3R0, 1-349 limits assumed: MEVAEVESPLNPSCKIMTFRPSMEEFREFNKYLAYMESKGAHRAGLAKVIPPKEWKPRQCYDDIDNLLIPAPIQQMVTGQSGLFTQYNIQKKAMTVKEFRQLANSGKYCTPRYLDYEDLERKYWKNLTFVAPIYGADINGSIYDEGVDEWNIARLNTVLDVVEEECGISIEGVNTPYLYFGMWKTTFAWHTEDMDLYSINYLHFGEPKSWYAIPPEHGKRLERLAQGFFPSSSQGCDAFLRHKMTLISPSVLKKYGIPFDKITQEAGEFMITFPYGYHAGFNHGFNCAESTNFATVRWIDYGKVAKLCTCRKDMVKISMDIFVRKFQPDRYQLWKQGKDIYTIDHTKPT
UniProt Q8NHM5, 1-650 limits assumed: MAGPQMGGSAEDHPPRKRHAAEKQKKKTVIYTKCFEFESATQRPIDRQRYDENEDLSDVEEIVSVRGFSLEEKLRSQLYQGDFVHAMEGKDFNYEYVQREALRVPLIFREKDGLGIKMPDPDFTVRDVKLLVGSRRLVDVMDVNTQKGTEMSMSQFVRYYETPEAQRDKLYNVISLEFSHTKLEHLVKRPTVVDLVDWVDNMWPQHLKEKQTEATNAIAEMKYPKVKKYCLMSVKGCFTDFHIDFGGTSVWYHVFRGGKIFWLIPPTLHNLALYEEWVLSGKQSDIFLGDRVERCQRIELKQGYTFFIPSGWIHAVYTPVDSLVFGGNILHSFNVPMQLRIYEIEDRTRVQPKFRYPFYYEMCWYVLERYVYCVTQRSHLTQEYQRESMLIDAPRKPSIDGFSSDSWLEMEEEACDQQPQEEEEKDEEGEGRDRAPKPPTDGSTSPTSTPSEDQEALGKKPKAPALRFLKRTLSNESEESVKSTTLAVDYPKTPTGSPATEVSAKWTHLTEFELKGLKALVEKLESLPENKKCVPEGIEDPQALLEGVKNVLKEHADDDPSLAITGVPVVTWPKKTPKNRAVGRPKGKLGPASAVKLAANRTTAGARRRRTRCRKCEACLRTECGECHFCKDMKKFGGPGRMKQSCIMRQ
UniProt Q9UPP1, 37-440 limits assumed: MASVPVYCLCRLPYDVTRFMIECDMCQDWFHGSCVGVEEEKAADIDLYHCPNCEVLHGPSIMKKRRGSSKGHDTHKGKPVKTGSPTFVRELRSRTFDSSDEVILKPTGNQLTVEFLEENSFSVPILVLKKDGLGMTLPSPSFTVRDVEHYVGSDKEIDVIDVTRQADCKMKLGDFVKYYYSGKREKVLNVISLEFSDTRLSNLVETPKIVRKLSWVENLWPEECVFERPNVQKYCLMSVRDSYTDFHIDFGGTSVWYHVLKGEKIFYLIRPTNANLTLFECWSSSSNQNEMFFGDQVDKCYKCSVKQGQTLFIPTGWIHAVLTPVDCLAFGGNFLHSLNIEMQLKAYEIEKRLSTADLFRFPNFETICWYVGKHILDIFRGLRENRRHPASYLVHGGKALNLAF
UniProt Q9UGL1, 1-809 limits assumed: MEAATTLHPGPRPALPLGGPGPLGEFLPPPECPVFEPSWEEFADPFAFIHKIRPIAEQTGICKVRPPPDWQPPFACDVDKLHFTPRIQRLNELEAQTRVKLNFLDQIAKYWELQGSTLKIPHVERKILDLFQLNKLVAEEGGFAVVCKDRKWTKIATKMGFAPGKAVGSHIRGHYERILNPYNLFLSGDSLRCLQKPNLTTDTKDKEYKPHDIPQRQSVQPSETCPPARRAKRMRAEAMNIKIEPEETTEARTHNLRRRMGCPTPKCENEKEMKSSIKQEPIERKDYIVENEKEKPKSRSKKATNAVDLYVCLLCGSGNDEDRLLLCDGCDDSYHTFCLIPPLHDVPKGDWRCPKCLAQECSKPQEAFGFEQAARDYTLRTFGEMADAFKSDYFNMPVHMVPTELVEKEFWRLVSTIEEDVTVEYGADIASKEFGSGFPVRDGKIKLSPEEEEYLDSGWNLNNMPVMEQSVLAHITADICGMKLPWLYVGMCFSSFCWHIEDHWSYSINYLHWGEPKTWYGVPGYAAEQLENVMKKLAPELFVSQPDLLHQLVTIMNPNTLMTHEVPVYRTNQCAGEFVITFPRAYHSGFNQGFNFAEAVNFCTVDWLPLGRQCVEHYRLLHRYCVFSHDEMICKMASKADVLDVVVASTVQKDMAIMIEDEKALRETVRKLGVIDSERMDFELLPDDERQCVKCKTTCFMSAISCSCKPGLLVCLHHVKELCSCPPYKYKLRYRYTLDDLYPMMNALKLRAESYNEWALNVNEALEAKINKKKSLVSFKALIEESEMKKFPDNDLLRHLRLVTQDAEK
UniProt O15550, 919-1401 limits assumed: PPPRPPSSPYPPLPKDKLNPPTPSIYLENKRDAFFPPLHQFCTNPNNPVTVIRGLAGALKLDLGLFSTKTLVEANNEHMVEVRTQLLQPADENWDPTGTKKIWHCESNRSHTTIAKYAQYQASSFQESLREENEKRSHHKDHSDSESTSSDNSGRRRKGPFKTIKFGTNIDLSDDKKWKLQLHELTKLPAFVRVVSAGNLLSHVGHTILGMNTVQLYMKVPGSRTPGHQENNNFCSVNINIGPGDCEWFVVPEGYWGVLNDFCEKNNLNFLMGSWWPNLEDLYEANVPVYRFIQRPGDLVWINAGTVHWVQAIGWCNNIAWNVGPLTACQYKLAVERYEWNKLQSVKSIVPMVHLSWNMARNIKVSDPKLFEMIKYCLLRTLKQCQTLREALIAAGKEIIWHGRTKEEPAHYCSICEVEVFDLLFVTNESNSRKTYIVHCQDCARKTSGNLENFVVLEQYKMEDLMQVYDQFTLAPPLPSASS

Row | SMILES | IC50 (KDM4C (JMJD2C); [1]) [µM] | IC50 (KDM4C (JMJD2C); [2]) [µM] | IC50 (KDM2B (FBXL10); [3]) [µM] | IC50 (KDM2B (FBXL10); [4]) [µM] | IC50 (PHF8 (KDM7); [5]) [µM] | IC50 (PHF8 (KDM7); [6]) [µM] | IC50 (KDM5B (PLU-1); [7]) [µM] | IC50 (KDM5B (PLU-1); [8]) [µM] | IC50 (KDM6A (UTX); read-out: HDME Inhibition KDM6A (IC50), AlphaLISA assay) [µM] | IC50 (KDM6A (UTX); read-out: HDME Inhibition KDM6A, AlphaLISA, in vitro) [µM]
1 | Cc1cc(C(=O)O)cc(CNCc2nncn2CCc2cccc(Cl)c2)n1 | > 10 | > 10 | 0.76 | 0.76 | 0.881 | 0.881 | > 10 | > 10 |  | 
2 | Cc1cc(C(=O)O)cc(CNCc2nnc(CCc3ccccc3)n2Cc2ccc(F)cc2)n1 | > 10 | > 10 | 1.02 | 1.02 | 2.04 | 2.04 | > 10 | > 10 | > 10 | > 10
